Measured values from patent US20210032353A1 (NATIONAL HEALTH RESEARCH INSTITUTES, published 2021).
Results are given in words; binding and its absence hold for the method and conditions named. Some entries that bind do so weakly or less than the wild type.

Protein sequences, listed by entry. Tags and fused reporters are not part of them. Residues count along the entry.
VEGFR2 IgD6 (individual recombinant immunoglobin-like domain 6 of VEGFR2) (P35968, residues 551-660): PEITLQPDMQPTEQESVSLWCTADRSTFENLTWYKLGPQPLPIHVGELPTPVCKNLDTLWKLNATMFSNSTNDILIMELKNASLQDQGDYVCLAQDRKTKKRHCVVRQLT
R2IgD7 (P35968, residues 667-753): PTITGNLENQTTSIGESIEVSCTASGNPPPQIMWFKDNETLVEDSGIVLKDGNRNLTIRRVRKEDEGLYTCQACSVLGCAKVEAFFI
UniProt P35916, residues 555-671: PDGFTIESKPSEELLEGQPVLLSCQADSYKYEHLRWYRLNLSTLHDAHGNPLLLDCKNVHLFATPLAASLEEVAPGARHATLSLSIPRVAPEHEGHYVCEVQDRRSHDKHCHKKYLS

What was measured:
[1] = biological target: R2C9-11 monoclonal antibody; assay: cell-based competitive ELISA: R2C9-11 absorbed with the soluble domain, then bound to fixed 293T/VEGFR2 cells, OD405
[2] = biological target: R2C7-1 monoclonal antibody; assay: cell-based competitive ELISA: R2C7-1 absorbed with the soluble domain, then bound to fixed 293T/VEGFR2 cells, OD405
[3] = biological target: R2C9-11 monoclonal antibody; assay: cell-based competitive ELISA: R2C9-11 absorbed with the soluble domain, then bound to 293T/VEGFR3 cells, OD405
[4] = biological target: R2C7-1 monoclonal antibody; assay: cell-based competitive ELISA: R2C7-1 absorbed with the soluble domain, then bound to 293T/VEGFR3 cells, OD405

Row | binding [1] | binding [2] | binding [3] | binding [4] | Substance
1 | binds | binds |  |  | R2IgD7 (from UniProt P35968) (receptor)
2 |  |  | binds | binds | R3-IgD6 (from UniProt P35916) (receptor)
3 | binds | binds |  |  | VEGFR2 IgD6 (individual recombinant immunoglobin-like domain 6 of VEGFR2) (from UniProt P35968 551-660) (receptor)
